# Out of some 310,000 compounds screened, about 17,000 (5.5%) were called active. Inconclusive results, whose numbers are uncertain, are shown with a selection of clear calls. The call rests on the fitted dose curve; in most records, active means well fitted inhibition curve with a large enough effect; inconclusive means small, poorly fitted or top-dose-only effect, or effect the other way; inactive means no such curve, though single readings can be large or run the other way. Where the call is inconclusive, the potency comes from a doubtful curve fit.
# The chains behind the UniProt entries cited, without tags or fusion partners. Where a name states a change or a piece, a line headed by the entry shows the natural chain unless it says otherwise.
# UniProt P51450: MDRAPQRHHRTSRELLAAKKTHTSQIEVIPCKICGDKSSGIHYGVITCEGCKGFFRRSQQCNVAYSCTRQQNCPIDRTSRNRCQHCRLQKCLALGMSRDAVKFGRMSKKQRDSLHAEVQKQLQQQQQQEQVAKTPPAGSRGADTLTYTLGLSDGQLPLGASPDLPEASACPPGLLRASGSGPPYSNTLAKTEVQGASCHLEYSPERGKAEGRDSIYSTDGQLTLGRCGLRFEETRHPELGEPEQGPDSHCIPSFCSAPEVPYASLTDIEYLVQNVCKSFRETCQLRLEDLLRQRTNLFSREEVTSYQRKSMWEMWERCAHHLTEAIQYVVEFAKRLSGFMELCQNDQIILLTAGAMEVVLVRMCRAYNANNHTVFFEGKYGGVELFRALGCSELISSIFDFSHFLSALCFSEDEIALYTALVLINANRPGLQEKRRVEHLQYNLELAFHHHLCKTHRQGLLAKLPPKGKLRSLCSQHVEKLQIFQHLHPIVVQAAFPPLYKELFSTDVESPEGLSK
# Biological target: Nuclear receptor ROR-gamma (Mus musculus) (UniProt P51450)
# Test: qHTS for inhibitors of ROR gamma transcriptional activity; further: nearly all actives have a fitted effect of over 60% in size
# Conditions: Drosophila S2 Gal4-RORgamma UAS-luciferase reporter, 20 h; activity change, negative = inhibition: at 53.6 µM (top of the series)
# Summary of the method: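 In this cell-based reporter format, copper sulfate (700 uM final) drives Gal4–ROR gamma fusion expression from a metallothionein promoter in Drosophila Schneider cells; compounds preincubated 1 hr, reporter read after 20 hr at ambient temperature.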
# On the % scale 0 is the no-effect control and ±100 the full control effect; potency means the concentration at half of the fitted maximal effect.
SMILES,Potency,"activity change, negative = inhibition"
O=C(Nc1ccc2ccccc2c1)C(c1ccccc1)C1CCCC1 (centres undefined),"inconclusive: 15.8 µM [activator, partial curve]",–
Cc1cccc(C(=O)OC2CCOC2=O)c1O (centres undefined),–,inactive: -2.06%
Cc1ccc(Nc2nc3ccccc3c(=O)s2)cc1C,active: 2.82 µM,–
COc1cc(CCC(=O)OCC(=O)Nc2ccc(C(N)=O)cc2)cc(OC)c1OC,"inconclusive: 22.4 µM [inhibitor, single point]",–
Cc1cc(C)c[n+](C(C)C(=O)c2ccc(Cl)cc2)c1 (centres undefined),–,inactive: -9.31%
COc1ccc(NC(=O)C2C3C=CC4(O3)C2C(=O)N(CCN2CCCCC2C)C4C(=O)NC2CCCC(C)C2C)cc1 (centres undefined),–,inactive: -8.92%
COc1ccc(-c2ccc(-c3noc(-c4cccc(OC)c4)n3)c(OC)n2)cc1,active: 0.355 µM,–
CC(C)c1ccc(Cn2ccc3c4c(N)nc(NC5CC5)nc4ccc32)cc1,active: 15.8 µM,–
CCOc1ccccc1C(=O)NC(C(=O)OCC(=O)Nc1nnc(-c2ccccc2)o1)C(C)C (centres undefined),active: 2.24 µM,–
CC(=O)N1CCN(C(=O)COc2ccc(Br)cc2)CC1,"inconclusive: 20 µM [inhibitor, single point]",–
CCOc1ccccc1N1CCN(C(=O)Nc2cccc(Cl)c2)CC1,"inconclusive: 35.5 µM [activator, single point]",–
CCCCn1c(N)c(N(CC)C(=O)c2cccc(F)c2)c(=O)[nH]c1=O,"inconclusive: 35.5 µM [inhibitor, single point]",–
CC(C)Oc1ccc(/C=N/NC(=O)c2nnn(-c3nonc3N)c2CN(C)c2ccccc2)cc1,"inconclusive: 35.5 µM [inhibitor, single point]",–
CN1CCCN(C2C3CC4CC(C3)CC2C4)CC1 (centres undefined),–,inactive: -42.5%
Cc1cc(C)c2c(CC(=O)NN(C)C)coc2c1,"inconclusive: 31.6 µM [inhibitor, single point]",–
CCc1nnc(NC(=O)c2ccc(OCc3c(C)noc3C)c(OC)c2)s1,–,inactive: -24%
Cn1cc(S(=O)(=O)N2CCOCC2)cc1C(=O)NCc1ccccc1Cl,"inconclusive: 25.1 µM [activator, single point]",–
COC1=C(N)C(=O)c2nc(-c3nc(C(=O)O)c(C)c(-c4ccc(OC)c(OC)c4O)c3N)ccc2C1=O,active: 14.1 µM,–
C(=N\NCc1ccccc1)/c1ccc2ncccc2c1,–,inactive: 3.98%
COc1ccc(CN2CCN(c3ccccn3)CC2)c(OC)c1C,–,inactive: 13.3%
Cc1cc2c(c(C)c1Br)C(c1ccc3c(c1)OCO3)CC(=O)O2 (centres undefined),"inconclusive: 35.5 µM [activator, single point]",–
S=C1NC2(CCCCC2)N=C1c1ccccc1,active: 3.16 µM,–
Cc1csc(NC(=O)c2cncc(Br)c2)n1,"inconclusive: 35.5 µM [inhibitor, single point]",–
CSc1ccc(-c2cc(=O)c3ccccc3o2)cc1,"inconclusive: 6.31 µM [activator, single point]",–
C=CCN1C(=O)/C(=C/C(=O)OC)S/C1=N\NC(=O)c1ccccc1,active: 7.94 µM,–

# Single records (already shown).
# CSc1ccc(-c2cc(=O)c3ccccc3o2)cc1 as listed: Potency: inconclusive: 6.31 µM [activator, single point]
# Cc1cccc(C(=O)OC2CCOC2=O)c1O (centres undefined) as listed: activity change, negative = inhibition: inactive: -2.06%

# (cont.)

SMILES,Potency,"activity change, negative = inhibition"
CN1C(=O)C2(NCCc3c2[nH]c2ccccc32)c2ccccc21 (centres undefined),–,inactive: -13.5%
CCCCC(c1nnnn1CS(=O)(=O)c1ccc(C)cc1)N1CCN(C)CC1 (centres undefined),"inconclusive: 35.5 µM [inhibitor, single point]",–
CCOc1ccc(S(=O)(=O)n2ccc(C)n2)c2ccccc12,"inconclusive: 14.1 µM [activator, partial curve, poor fit]",–
COc1cc2[nH]c(=O)n3nc(-c4ccccc4)nc3c2cc1OC,"inconclusive: 0.794 µM [activator, full curve, poor fit]",–
CCOC(=O)c1cccc(NC(=O)CCn2nnc3ccccc32)c1,"inconclusive: 35.5 µM [activator, single point]",–
Cc1nc(SCC(=O)Nc2nc3ccccc3s2)c(C#N)c(C)c1C,active: 0.355 µM,–
CCOC(=O)Nc1ccc2c(c1)N(C(=O)N(CC)CC)c1ccccc1CC2,"inconclusive: 15.8 µM [activator, single point]",–
CN(C)c1ccc(/C=N/N=C2/NC(=O)/C(=C/c3ccc([N+](=O)[O-])cc3)S2)cc1,active: 2.82 µM,–
CCOC(=O)C1CCCN(C(=O)CSc2ccccc2)C1 (centres undefined),–,inactive: 5.91%
CC1(C)Cc2nc3sc4c(SCC(=O)NCc5ccco5)ncnc4c3cc2CO1,"inconclusive: 35.5 µM [inhibitor, single point]",–
COc1cc(/C=C/C(=O)OCC(=O)NC(=O)NC(C)(C)C)ccc1OCC#N,"inconclusive: 14.1 µM [activator, partial curve]",–
CC(C)OCCCNC(=S)Nc1ccc(S(N)(=O)=O)cc1,–,inactive: 7.98%
Cc1ccccc1OCc1nc2ccccc2c(=O)n1/N=C/c1cn[nH]c1-c1ccc(Br)cc1,"inconclusive: 35.5 µM [inhibitor, single point]",–
Cc1cccc(NC(=O)c2cc(-c3ccccn3)nc3ccccc23)c1C,"inconclusive: 31.6 µM [inhibitor, single point]",–
COC(=O)c1c(-c2ccc(C)cc2)csc1NC(=O)c1c(-c2ccccc2)noc1C,"inconclusive: 15.8 µM [activator, single point]",–
O=S(=O)(c1cccc(Br)c1)N1CCN(CCc2ccccc2)CC1,–,inactive: 15.6%
CC(=O)NCCc1c(C)n(Cc2ccccc2)c2ccccc12,–,inactive: 18.9%
CCCn1c(-c2ccc(F)cc2)nc2c(NCCN3CCCCC3)nc(C)nc21,–,inactive: 3.86%
C=CCn1c(=NC(=O)c2ccco2)sc2cc(C(=O)OCC)ccc21,"inconclusive: 0.708 µM [activator, full curve]",–
COC(=O)c1ccc(C2Nc3cccc4cccc(c34)N2)cc1,–,inactive: -27%
Cc1c(Cl)c([N+](=O)[O-])nn1CCCC(=O)Nc1c(Cl)cccc1Cl,–,inactive: -8.26%
Cc1ccc(NC(=O)c2ccc(Nc3c([N+](=O)[O-])cc([N+](=O)[O-])cc3[N+](=O)[O-])cc2)cc1,"inconclusive: 15.8 µM [inhibitor, single point]",–
COc1ccc(N2CCN(CCCn3c(=S)[nH]c4ncccc4c3=O)CC2)cc1,"inconclusive: 11.2 µM [inhibitor, partial curve]",–
CC1CCN(c2nnc(-c3cccs3)c3ccccc23)CC1,"inconclusive: 35.5 µM [activator, single point]",–
CC1CCC(n2c(=S)[nH]c3ccccc3c2=O)CC1 (centres undefined),active: 0.199 µM,–

# In the list so far, these have an aryl methoxy group:
SMILES,Potency,"activity change, negative = inhibition"
COc1cc(CCC(=O)OCC(=O)Nc2ccc(C(N)=O)cc2)cc(OC)c1OC,"inconclusive: 22.4 µM [inhibitor, single point]",–
COc1ccc(NC(=O)C2C3C=CC4(O3)C2C(=O)N(CCN2CCCCC2C)C4C(=O)NC2CCCC(C)C2C)cc1 (centres undefined),–,inactive: -8.92%
COc1ccc(-c2ccc(-c3noc(-c4cccc(OC)c4)n3)c(OC)n2)cc1,active: 0.355 µM,–
CCc1nnc(NC(=O)c2ccc(OCc3c(C)noc3C)c(OC)c2)s1,–,inactive: -24%
COC1=C(N)C(=O)c2nc(-c3nc(C(=O)O)c(C)c(-c4ccc(OC)c(OC)c4O)c3N)ccc2C1=O,active: 14.1 µM,–
COc1ccc(CN2CCN(c3ccccn3)CC2)c(OC)c1C,–,inactive: 13.3%
COc1cc2[nH]c(=O)n3nc(-c4ccccc4)nc3c2cc1OC,"inconclusive: 0.794 µM [activator, full curve, poor fit]",–
COc1cc(/C=C/C(=O)OCC(=O)NC(=O)NC(C)(C)C)ccc1OCC#N,"inconclusive: 14.1 µM [activator, partial curve]",–
COc1ccc(N2CCN(CCCn3c(=S)[nH]c4ncccc4c3=O)CC2)cc1,"inconclusive: 11.2 µM [inhibitor, partial curve]",–

# Going on with the list:

SMILES,Potency,"activity change, negative = inhibition"
Cc1[nH]c(=O)[nH]c(=O)c1S(=O)(=O)N1CCCC(C(=O)N2CCN(c3cccc(C(F)(F)F)c3)CC2)C1 (centres undefined),"inconclusive: 22.4 µM [activator, partial curve, poor fit]",–
O=C(Nc1cccc2nsnc12)C1CC(=O)N(c2ccccc2)C1 (centres undefined),"inconclusive: 25.1 µM [inhibitor, single point]",–
O=C(C1=C[C@@H](c2ccc(C(F)(F)F)cc2)C[C@@H](OCc2ccc(CO)cc2)O1)N1CCN(Cc2ccccc2)CC1,"inconclusive: 35.5 µM [activator, single point]",–
O=C(CCSc1nnc(-c2ccco2)o1)Nc1ccc(Cl)cc1,"inconclusive: 35.5 µM [activator, single point]",–
C/C(=N\NC(=O)c1ccc(Cl)c(Cl)c1)c1cccc(NC(=O)C(C)C)c1,"inconclusive: 35.5 µM [inhibitor, single point]",–
COc1ccc(-c2noc(CN3CCN(C(=O)c4cccs4)CC3)n2)c(OC)c1OC,–,inactive: -15%
CCOc1ccc(NC(=O)Cc2ccccc2)cc1,–,inactive: 1.15%
O=C1/C(=C/c2ccccc2)SC(=S)N1CCCC(=O)N1CCCCC1CCO (centres undefined),"inconclusive: 15.8 µM [inhibitor, single point]",–
COc1cccc(-c2nnc(NC(C)=O)o2)c1,"inconclusive: 0.891 µM [inhibitor, single point]",–
CCCc1cc(=O)n2[nH]cc(-c3ccc(Cl)cc3)c2n1,active: 4.47 µM,–
CCOC(=O)c1c(C)oc2c(CN3CCN(C)CC3)c(Br)c(OC)c(O)c12,"inconclusive: 35.5 µM [inhibitor, single point]",–
Cc1cc(C)nc(SCc2ccc(F)cc2)n1,–,inactive: -0.105%
COc1ccc(/C=C2\SC(=S)N(CCC(=O)Nc3ccc(C(=O)O)cc3)C2=O)cc1OC,–,inactive: -3.26%
CCCn1c(C2CCCN2c2nc(-c3ccc(C)cc3)cs2)nc2ccccc21 (centres undefined),active: 3.55 µM,–
COc1cc(OC)cc(C(=O)Oc2ccc(/C=N/Nc3nc4ccccc4s3)cc2OC)c1,active: 10 µM,–
COc1cc(C2C3=C(CC(C)(C)CC3=O)N(C)C3=C2C(=O)CC(C)(C)C3)ccc1O,–,inactive: -12.6%
Cc1ccc(OCCC(=O)OCC(=O)Nc2ccc(Cl)cn2)cc1,"inconclusive: 6.31 µM [inhibitor, single point]",–
CC(=O)C(Cc1cnc(Cl)s1)(Cc1cnc(Cl)s1)C(C)=O,"inconclusive: 6.31 µM [activator, single point]",–
O=C(c1cc(C(F)(F)F)cc(C(F)(F)F)c1)N1CCC2(CCCN(c3ccccc3)C2)CC1,"inconclusive: 14.1 µM [activator, single point]",–
CN(CCCC(=O)Nc1nccs1)S(=O)(=O)c1ccc(Cl)cc1,"inconclusive: 6.31 µM [activator, single point]",–
CCCOc1ccc(-c2c(C(=O)N/N=C/c3ccc(C)o3)nnn2-c2nonc2N)cc1,active: 3.55 µM,–
COc1ccc(CC(=O)Oc2cc(C)ccc2C)cc1,–,inactive: -0.467%
CC(=O)c1ccc(N2CCN(C(=O)c3cccs3)C(C)C2)c(F)c1 (centres undefined),"inconclusive: 15.8 µM [activator, partial curve]",–
CCCCC(=O)Nc1ccc(Br)cn1,"inconclusive: 22.4 µM [activator, single point]",–

# Reference: PubChem BioAssay AID2551 (National Center for Advancing Translational Sciences (NCATS), 2010)
